± gives the standard deviation of the averaged measurements. Small differences around the control level are noise.
Tests used:
Assay in all cases: level (log10 ratio to DMSO vehicle control); higher = higher biomarker level / cell amount than vehicle control
[1] = compound: O=C(O)C(F)(F)C(F)(F)C(F)(F)C(F)(F)C(F)(F)C(F)(F)C(F)(F)C(F)(F)C(F)(F)C(F)F [11-H-Perfluoroundecanoic acid]; details: 2200 nM; in DMSO
Method: (§1)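 BioMAP Diversity Plus panel of 12 human primary cell co-culture systems (3C, 4H, LPS, SAg, BT, BF4T, BE3C, CASM3C, HDF3CGF, KF3CT, MyoF, Mphg). Compounds were added 1 h before stimulation and left for 24 h (MyoF 48 h; BT 72 h for soluble read-outs or 6 d for IgG). Biomarkers were read by ELISA, cytotoxicity by SRB, PBMC viability and proliferation by Alamar Blue. Each well value was divided by the mean of 8 DMSO control wells on the same plate and log10 transformed; duplicate blinded samples were tested at 4 concentrations.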

[2] = compound: CCCCCCCCC(F)(F)C(F)(F)C(F)(F)C(F)(F)C(F)(F)C(F)(F)F [1-(Perfluorohexyl)octane]; details: in DMSO
Method: as §1

[3] = compound: OCCC(F)(F)C(F)(F)C(F)(F)C(F)(F)C(F)(F)C(F)(F)F [6:2 Fluorotelomer alcohol]; details: 2200 nM; in DMSO
Method: as §1

[4] = compound: NCC(F)(F)C(F)(F)C(F)(F)C(F)(F)C(F)(F)C(F)(F)C(F)(F)F [1H,1H-Perfluorooctylamine]; details: 2200 nM; in DMSO
Method: as §1

[5] = compound: CCN(CCO)S(=O)(=O)C(F)(F)C(F)(F)C(F)(F)C(F)(F)C(F)(F)C(F)(F)C(F)(F)C(F)(F)F [N-Ethyl-N-(2-hydroxyethyl)perfluorooctanesulfonamide]; details: in DMSO
Method: as §1

[6] = compound: O=C(O)C(F)(F)C(F)(F)C(F)(F)C(F)(F)F [Perfluoropentanoic acid]; details: in DMSO
Method: as §1

[7] = compound: FC(F)(F)C(F)(F)C(F)(F)C(F)(F)C(F)(F)C(F)(F)CC1CO1 [3-(Perfluorohexyl)-1,2-epoxypropane]; details: 2200 nM; in DMSO
Method: as §1

[8] = compound: NC(=O)C(F)(F)C(F)(F)C(F)(F)F [Heptafluorobutyramide]; details: 2200 nM; in DMSO
Method: as §1

[9] = compound: O=C(O)C(F)(F)C(F)(F)C(F)(F)C(F)(F)C(=O)O [Octafluoroadipic acid]; details: 2200 nM; in DMSO
Method: as §1

[10] = compound: OCC(F)(F)C(F)(F)C(F)(F)F [1H,1H-Heptafluorobutanol]; details: 2200 nM; in DMSO
Method: as §1

[11] = compound: CC(C)(C)C(=O)CC(=O)C(F)(F)C(F)(F)C(F)(F)F [(Heptafluorobutanoyl)pivaloylmethane]; details: 2200 nM; in DMSO
Method: as §1

[12] = compound: O=C(O)C(F)(F)C(F)(F)C(F)(F)OC(F)(F)F [Perfluoro(4-methoxybutanoic) acid]; details: 2200 nM; in DMSO
Method: as §1

[13] = compound: Cc1ccc(S(=O)(=O)OCC(F)(F)C(F)(F)C(F)(F)C(F)(F)C(F)(F)C(F)F)cc1 [1H,1H,7H-Perfluoroheptyl 4-methylbenzenesulfonate]; details: 2200 nM; in DMSO
Method: as §1

[14] = compound: O=C(O)C(F)(F)C(F)(F)C(F)(F)C(F)(F)C(F)(F)C(F)(F)F [Perfluoroheptanoic acid]; details: in DMSO
Method: as §1

[15] = compound: CN(C(=O)C(F)(F)C(F)(F)C(F)(F)F)[Si](C)(C)C [N-Methyl-N-trimethylsilylheptafluorobutyramide]; details: 2200 nM; in DMSO
Method: as §1

[16] = compound: O=S(=O)(O)CCC(F)(F)C(F)(F)C(F)(F)C(F)(F)C(F)(F)C(F)(F)C(F)(F)C(F)(F)F [8:2 Fluorotelomer sulfonic acid]; details: in DMSO
Method: as §1

Test System | level (log10) [1] | level (log10) ([2]; 740 nM) | level (log10) ([2]; 2200 nM) | level (log10) [3] | level (log10) [4] | level (log10) ([5]; 2200 nM) | level (log10) ([5]; 6700 nM) | level (log10) ([5]; 20000 nM) | level (log10) ([6]; 2200 nM) | level (log10) ([6]; 6700 nM) | level (log10) ([6]; 20000 nM) | level (log10) ([6]; 60000 nM) | level (log10) [7] | level (log10) [8] | level (log10) [9] | level (log10) [10] | level (log10) [11] | level (log10) [12] | level (log10) [13] | level (log10) ([14]; 2200 nM) | level (log10) ([14]; 6700 nM) | level (log10) ([14]; 20000 nM) | level (log10) ([14]; 60000 nM) | level (log10) [15] | level (log10) ([16]; 2200 nM) | level (log10) ([16]; 6700 nM) | level (log10) ([16]; 20000 nM) | level (log10) ([16]; 60000 nM)
lMphg:CD62E/E-Selectin | -0.025 ± 0.054 | -0.0235 ± 0.026 | 0.006 ± 0.03 | 0.003 ± 0.016 | 0.0075 ± 0.03 | 0.0175 ± 0.019 | 0.0935 ± 0.0078 | 0.14 ± 0.0099 | 0 ± 0.0042 | 0.012 ± 0.0057 | -0.008 ± 0.014 | 0.003 ± 0.042 | -0.0175 ± 0.0078 | 0.03 ± 0.042 | -0.01 ± 0.058 | 0.0085 ± 0.016 | -0.0115 ± 0.0092 | -0.014 ± 0.04 | -0.0155 ± 0.03 | -0.015 ± 0.047 | -0.026 ± 0.0028 | 0 ± 0.024 | 0.025 ± 0.018 | -0.015 ± 0.048 | 0.0005 ± 0.029 | 0.0165 ± 0.0092 | 0.048 ± 0.0042 | 0.103 ± 0.0057
MyoF:bFGF | 0.0005 ± 0.0092 | 0.002 ± 0.0057 | 0.0055 ± 0.012 | -0.001 ± 0.017 | 0.0045 ± 0.032 | 0.0105 ± 0.025 | -0.01 ± 0.016 | -0.025 ± 0.0042 | -0.0145 ± 0.018 | -0.021 ± 0.0014 | -0.0085 ± 0.0078 | -0.0055 ± 0.0035 | 0.027 ± 0.034 | -0.004 ± 0.023 | 0.011 ± 0.016 | -0.001 ± 0.016 | -0.002 ± 0.016 | 0.0035 ± 0.00071 | 0.0015 ± 0.0092 | 0.0085 ± 0.04 | -0.029 ± 0.0085 | -0.0255 ± 0.013 | -0.0075 ± 0.0021 | 0.011 ± 0.024 | 0.017 ± 0.028 | 0.0045 ± 0.012 | 0.006 ± 0.023 | 0.0265 ± 0.0021
HDF3CGF:M-CSF | -0.0175 ± 0.054 | 0.001 ± 0.027 | -0.0125 ± 0.044 | 0.0045 ± 0.0035 | -0.0775 ± 0.044 | -0.009 ± 0.017 | -0.101 ± 0.013 | -0.27 ± 0.0071 | -0.0095 ± 0.025 | 0.0025 ± 0.019 | -0.018 ± 0.0099 | 0.004 ± 0.0028 | -0.0105 ± 0.018 | 0.0045 ± 0.013 | -0.0035 ± 0.0035 | 0.0235 ± 0.0078 | 0.017 ± 0.045 | 0.0155 ± 0.037 | -0.0055 ± 0.088 | -0.009 ± 0.016 | -0.009 ± 0.0099 | 0.0025 ± 0.015 | 0.01 ± 0.0014 | 0.006 ± 0.02 | -0.009 ± 0.04 | -0.0035 ± 0.056 | -0.014 ± 0.038 | -0.0685 ± 0.04
LPS:sPGE2 | 0.0075 ± 0.026 | 0.054 ± 0.0085 | -0.0235 ± 0.033 | 0.0245 ± 0.015 | -0.0185 ± 0.059 | -0.037 ± 0.0042 | -0.023 ± 0.023 | 0.07 ± 0.0042 | -0.001 ± 0.033 | -0.008 ± 0.11 | -0.018 ± 0.0028 | 0.017 ± 0.011 | -0.016 ± 0.0028 | -0.022 ± 0.023 | -0.001 ± 0.11 | 0.0115 ± 0.016 | -0.0305 ± 0.012 | -0.035 ± 0.027 | 0.018 ± 0.037 | 0.026 | 0.0295 ± 0.005 | -0.0185 ± 0.022 | -0.0285 ± 0.059 | 0.037 ± 0.071 | 0.0135 ± 0.064 | -0.0245 ± 0.0035 | -0.078 ± 0.047 | -0.293 ± 0.017
CASM3C:HLA-DR | 0.005 ± 0.05 | 0.002 ± 0.0057 | -0.0005 ± 0.0035 | 0.024 ± 0.088 | 0.0015 ± 0.03 | 0.006 ± 0.0042 | -0.002 ± 0.024 | -0.111 ± 0.013 | -0.001 ± 0.031 | -0.019 ± 0.014 | -0.022 ± 0.023 | 0.003 ± 0.054 | 0.0245 ± 0.066 | -0.018 ± 0.023 | -0.005 ± 0.058 | 0.022 ± 0.0014 | 0.0175 ± 0.021 | -0.003 ± 0.037 | -0.0115 ± 0.005 | 0.0305 ± 0.079 | -0.009 ± 0.0085 | -0.0315 ± 0.005 | -0.004 ± 0.052 | -0.0035 ± 0.039 | 0.018 ± 0.011 | 0.0155 ± 0.023 | -0.009 ± 0.024 | -0.015 ± 0.017
HDF3CGF:TIMP-1 | -0.0465 ± 0.033 | -0.0035 ± 0.061 | -0.0075 ± 0.063 | 0.0245 ± 0.032 | -0.0235 ± 0.044 | 0.0425 ± 0.063 | 0.005 ± 0.081 | -0.0605 ± 0.074 | 0.0135 ± 0.018 | -0.0195 ± 0.0021 | -0.032 ± 0.014 | 0.0115 ± 0.011 | 0.018 ± 0.055 | 0.014 ± 0.059 | -0.004 ± 0.041 | -0.0095 ± 0.013 | -0.019 ± 0.0042 | 0.009 ± 0.059 | 0.0065 ± 0.064 | -0.0165 ± 0.052 | -0.0015 ± 0.00071 | -0.0115 ± 0.0035 | -0.0055 ± 0.035 | 0.003 ± 0.023 | 0.023 ± 0.055 | 0.0375 ± 0.0064 | 0.0435 ± 0.037 | -0.0365 ± 0.077
BT:sIL-2 | -0.054 ± 0.038 | 0.026 | 0.028 ± 0.057 | -0.0095 ± 0.13 | 0.03 ± 0.065 | -0.012 ± 0.021 | -0.046 ± 0.03 | -0.339 ± 0.076 | 0.033 ± 0.11 | -0.0115 ± 0.17 | 0.0385 ± 0.00071 | 0.0385 ± 0.0078 | -0.0205 ± 0.0035 | 0.0355 ± 0.0078 | 0.048 ± 0.079 | 0.065 ± 0.1 | -0.021 ± 0.0085 | 0.027 ± 0.057 | 0.0525 ± 0.067 | -0.013 ± 0.068 | -0.0105 ± 0.14 | 0.0035 ± 0.037 | -0.008 ± 0.075 | -0.0315 ± 0.016 | 0.0225 ± 0.06 | -0.023 ± 0.073 | 0.0195 ± 0.057 | 0.009 ± 0.011
CASM3C:CD87/uPAR | -0.0065 ± 0.06 | -0.015 ± 0.0099 | -0.0145 ± 0.0092 | -0.0065 ± 0.019 | -0.0205 ± 0.0092 | 0.0015 ± 0.0064 | -0.0595 ± 0.0092 | -0.09 ± 0.038 | -0.014 ± 0.02 | -0.027 ± 0.052 | -0.031 ± 0.027 | -0.0175 ± 0.005 | -0.003 ± 0.03 | -0.003 ± 0.014 | -0.024 ± 0.0099 | 0.0015 ± 0.0078 | 0.001 ± 0.0028 | -0.0025 ± 0.015 | -0.007 ± 0.021 | -0.001 ± 0.0057 | -0.0005 ± 0.0078 | -0.019 ± 0.031 | -0.0055 ± 0.036 | -0.013 ± 0.048 | 0.006 ± 0.023 | 0.025 ± 0.0099 | 0.022 ± 0.0014 | -0.0055 ± 0.016

Limited to level (log10) [3], for some of the entries so far:
Test System	level (log10) [3]
CASM3C:HLA-DR	0.024 ± 0.088
BT:sIL-2	-0.0095 ± 0.13

From the supplement of paper PMC10331698
